PubChem BioAssay AID686937 – Drosophila RNAi Screening Center, 2013

- Screen: 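Knock-downs that reduce output of a secreted reporter enzyme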 (primary screen)
- System: Drosophila S2 cells expressing secreted horseradish peroxidase
- Reagents: long dsRNA against Drosophila genes
- Duration: about 5.5 days (5 days dsRNA, then 12 h reporter induction)
- Treatment: reporter expression induced after 5 days of dsRNA, read 12 h later; inducer not stated
- Read-out: 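After 5 days of dsRNA and 12 h of reporter induction, medium peroxidase read by chemiluminescence and scored as per-plate z-score; higher values mean more reporter released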
- Scale: z-score: higher = more reporter secreted into medium
The screen tested about 23,000 reagents; this is an unselected part of those that have a named target and a result. 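Reduced-secretion tags in replicate 1 do not always agree with the z-scores; no criterion for assigning the tags was given.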 Names joined by + are all predicted targets of the reagent. Not all columns of the deposit are shown. Not stated in the record: the amount of reagent.

predicted target | DRSC id | z-score, replicate 1
CG30350 | DRSC07690 | 0.22
CG15628 | DRSC00256 | -1.75
CG15628 | DRSC00463 | 0.02
ND-18 | DRSC19441 | 0.09
WASp | DRSC15032 | 0.48
CG14196 | DRSC19551 | 0.41
Set1 | DRSC20930 | -0.18
Set1 | DRSC20931 | 0.1
CG31055 | DRSC13832 | 0.3
Mst57Dc | DRSC16745 | 0.41
caup | DRSC11334 | -2.21
trx | DRSC17089 | 0.41
CG32032 | DRSC08961 | 0.24
wrd | DRSC16337 | -3.81
wrd | DRSC16344 | 0.43
CG13689 | DRSC00358 | 0.32
CG12935 + Nop10 | DRSC07025 | 0.11
DNAlig3 | DRSC15201 | 0.23
Vrp1 | DRSC04148 | 0.46
Dera | DRSC07207 | 0.38
Dera | DRSC21336 | 0.16
Tis11 | DRSC20293 | -0.81
CG16786 | DRSC04281 | 0.27
Bre1 | DRSC09742 | -0.09
Sry-alpha | DRSC16867 | -1.34
Atf6 | DRSC04743 | 0.52
Atf6 | DRSC04889 | 0.41
CG33460 | DRSC05570 | 0.27
CG17292 | DRSC02594 | 0.27
Sec61gamma | DRSC19570 | -1.65
CG18809 | DRSC19818 | -0.15
Naxd | DRSC09722 | 0.27
RhoGAP100F | DRSC15409 | 0.17
CG30334 | DRSC05345 | 0.51
CG17361 | DRSC10266 | 0.59
Menl-2 + Menl-1 | DRSC07469 | 0.39
Menl-2 + Menl-1 | DRSC07470 | 0.31
Sp212 | DRSC22930 | -0.02
GEFmeso | DRSC06748 | 0.27
GEFmeso | DRSC06940 | 0.48
GEFmeso | DRSC21475 | -0.03
CG16879 (retired record) | DRSC01918 | -1.31
CG16879 (retired record) | DRSC22849 | -0.11
Usp12-46 | DRSC16175 | 0.37
asRNA:CR43477 + CG12256 | DRSC14484 | 0.29
Nuf2 | DRSC03123 | -0.13
CG30083 | DRSC05572 | -0.13
CG33258 | DRSC09415 | 0.01
mRpL42 | DRSC06235 | 0.18
CG3199 | DRSC15467 | 0.22
l(2)k01209 | DRSC06889 | 0.36
Cwc25 | DRSC00545 | -1.2
Sgs1 | DRSC00787 | 0.37
Sgs1 | DRSC00848 | -0.99
CG32075 | DRSC10622 | 0.15
CG5986 | DRSC15931 | 0.22
Skadu | DRSC01490 | -1.45
fipi | DRSC00465 | -0.39
CG11226 | DRSC11639 | 0.28
AP-2sigma | DRSC15957 | 0.11
Cpr23B | DRSC00555 | -0.71
Surf6 | DRSC15588 | 0.13
AdamTS-A | DRSC14992 | 0.1
AdamTS-A | DRSC15966 | 0.34
CG3251 | DRSC00586 | 0.45

The list goes on (12 carried over from the part before).
predicted target | DRSC id | z-score, replicate 1
Sgs1 | DRSC00848 | -0.99
CG32075 | DRSC10622 | 0.15
CG5986 | DRSC15931 | 0.22
Skadu | DRSC01490 | -1.45
fipi | DRSC00465 | -0.39
CG11226 | DRSC11639 | 0.28
AP-2sigma | DRSC15957 | 0.11
Cpr23B | DRSC00555 | -0.71
Surf6 | DRSC15588 | 0.13
AdamTS-A | DRSC14992 | 0.1
AdamTS-A | DRSC15966 | 0.34
CG3251 | DRSC00586 | 0.45
Cyp4ac3 | DRSC03304 | 0.12
Dp1 | DRSC07403 | 0.33
Girdin | DRSC08292 | -0.16
Inx7 | DRSC18784 | 0.36
Nadsyn | DRSC20222 | -0.06
Jon65Aiii | DRSC10649 | 0.36
CG9098 | DRSC03136 | 0.43
CG9098 | DRSC22501 | -0.08
CHES-1-like | DRSC18447 | 0.4
CG15812 | DRSC08479 | -0.04
CG43393 | DRSC03917 | 0.48
CG31142 | DRSC13647 | -0.69
shps | DRSC14614 | 0.28
CG3699 | DRSC18171 | 0.5
CG3699 | DRSC18642 | 0.5
E(bx) | DRSC08172 | 0.22
E(bx) | DRSC08509 | -3.62
E(bx) | DRSC08583 | -0.14
Dtwd2 + Obp84a | DRSC12603 | 0.18
ACOX1 | DRSC05941 | 0.32
CG34281 | DRSC14807 | -0.48
dpr17 | DRSC12885 | -0.34
dpr17 | DRSC14957 | 0.05
dpr17 | DRSC14958 | 0.09
CG17440 | DRSC18126 | 0.54
CG13220 | DRSC06342 | 0.13
Art3 | DRSC16065 | 0.34
Vha68-1 | DRSC03470 | 0.4
LysD + LysC (retired record) | DRSC08674 | 0.12
LysD + LysC (retired record) | DRSC22743 | -2.33
Polr2B | DRSC16831 | -4.66
CG17839 | DRSC10290 | 0.03
CG17839 | DRSC10291 | 0.34
GXIVsPLA2 | DRSC10243 | 0.32
CG33278 | DRSC10336 | -0.4
Rab9D + Rab9Fa + Rab9E | DRSC19853 | 0.2
Schip1 | DRSC02851 | 0.26
CG31883 | DRSC02561 | 0.12
HP1b | DRSC18418 | 0.47
